In patent publication CN105461808A:
These are yes or no findings as the source states them, for the method shown. Binding calls can cover weak binding; strength is not graded here.

B1: H017-6F11.3.2 (antibody, mouse IgG2b, V domains shown)
VH: EVQLQQSGAELVKPGASVKLSCTASGFNIKDTYIHWMRQRPEQGLEWIGRIDPANDNTKYDPKFQGKATVTADTSSNTAYLQLSSLTSEDTAVYYCARGLRLRYFDVWGAGTTVTVSS
VL: DIQMTQTPSSLSASLGGKVTITCKASQDIHKYIAWYQHKPGKGPRLLIHYTSTLQPGIPSRFSGSGSGRDFSFSISNLEPEDFETYYCLQYENLLPTFGGGTKLEIK
B2: H017-9C10.2.8 (antibody, mouse IgG1, V domains shown)
VH: QVQLKQSGFGLVLPSQSLSITCTVSGFSLTSYGVHWVRQSPGKGLEWLGLIWSGGGTDYNAAFISRLSISKDNSKSQVFFKINSLQANDTAIYYCARQLGLRAMDYWGQGTSVTVSS
VL: DILLTQSPAILSVSPGERVSFSCRASQSIGTTIHWYQQRTNGSPRLLIKYASESVSGIPSRFSGSGSGTDFTLSINSVESEDIADYYCQQSNSWPLTFGAGTKLEIK
B3: H018-17B5.5.1 (antibody, mouse IgG1, V domains shown)
VH: QVQLQQSGAELMKPGASVKISCKATGYKFSSYWIEWVKQRPGHGLEWIGEILPGSGNPNYDEKFKGKATFTADTSSNTAYMQLSSLTSEDSAVYYCARERWMDSWGQGTSVTVSS
VL: DIQMTQTASSLSASLGDRVTISCSASQGIFNYLNWYQQKPDGTVTVLIYYTSRLHSGVPSRFSGSGSGTDYSLTISNLEPEDIATYYCQQYSKLPYTFGGGTKLEIKR

The binders below were run against MonkeyPDL1-his (monkey) (assay: ELISA, MonkeyPDL1-his coated).
For B1, the binding was “binds”.
For B2, the binding was “binds”.
For B3, the binding was “binds”.

The binders below were run against MonkeyPDL1-his (monkey) (assay: ELISA, MonkeyPDL1-his coated (legend of Fig. 3-4)).
For B1, the binding was “binds”.
B2 was tested, and the binding was “binds”.
In the case of B3, the binding is reported as “binds”.

Each binder was assayed against MonkeyPDL1-his (monkey) (assay: summary of the tests done (ELISA)).
For B1, the binding was “binds”.
B2 was tested, and the binding was “binds”.
B3 was tested, and the binding was “binds”.
